Measurements published in ChEMBL document CHEMBL4007391, “Tackling Fungal Resistance by Biofilm Inhibitors” (J Med Chem, 2017).

Tested on: Candida albicans
Test: Antibiofilm activity against Candida albicans CAIF-100 after 24 hrs by Cell-Titer Blue assay
Type: functional

For `CN1CCN(CCCN2c3ccccc3Sc3ccc(Cl)cc32)CC1.O=S(=O)(O)CCS(=O)(=O)O` [PROCHLORPERAZINE EDISYLATE], the MBIC50 was 5.2 µM.
